Results are given in words; binding and its absence hold for the method and conditions named. For some assays here: Binding seen in cells or lysates may run through a third protein. Some binding calls cover weakened binding; strength is not graded here. For some assays here: Tags and fused reporters may be left off the sequences shown.

By UniProt entry, the sequences of proteins in these tests, tags left out. Residues count along the entry.
UniProt Q9P0T7, residues 21-183: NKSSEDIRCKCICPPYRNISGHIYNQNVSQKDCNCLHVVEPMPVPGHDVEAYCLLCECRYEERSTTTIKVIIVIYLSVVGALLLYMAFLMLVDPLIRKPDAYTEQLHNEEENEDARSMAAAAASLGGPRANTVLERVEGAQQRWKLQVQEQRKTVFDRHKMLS

One test has as its target T1, CLCN3-3xFlag (human) (UniProt P51790).
T1 sequence: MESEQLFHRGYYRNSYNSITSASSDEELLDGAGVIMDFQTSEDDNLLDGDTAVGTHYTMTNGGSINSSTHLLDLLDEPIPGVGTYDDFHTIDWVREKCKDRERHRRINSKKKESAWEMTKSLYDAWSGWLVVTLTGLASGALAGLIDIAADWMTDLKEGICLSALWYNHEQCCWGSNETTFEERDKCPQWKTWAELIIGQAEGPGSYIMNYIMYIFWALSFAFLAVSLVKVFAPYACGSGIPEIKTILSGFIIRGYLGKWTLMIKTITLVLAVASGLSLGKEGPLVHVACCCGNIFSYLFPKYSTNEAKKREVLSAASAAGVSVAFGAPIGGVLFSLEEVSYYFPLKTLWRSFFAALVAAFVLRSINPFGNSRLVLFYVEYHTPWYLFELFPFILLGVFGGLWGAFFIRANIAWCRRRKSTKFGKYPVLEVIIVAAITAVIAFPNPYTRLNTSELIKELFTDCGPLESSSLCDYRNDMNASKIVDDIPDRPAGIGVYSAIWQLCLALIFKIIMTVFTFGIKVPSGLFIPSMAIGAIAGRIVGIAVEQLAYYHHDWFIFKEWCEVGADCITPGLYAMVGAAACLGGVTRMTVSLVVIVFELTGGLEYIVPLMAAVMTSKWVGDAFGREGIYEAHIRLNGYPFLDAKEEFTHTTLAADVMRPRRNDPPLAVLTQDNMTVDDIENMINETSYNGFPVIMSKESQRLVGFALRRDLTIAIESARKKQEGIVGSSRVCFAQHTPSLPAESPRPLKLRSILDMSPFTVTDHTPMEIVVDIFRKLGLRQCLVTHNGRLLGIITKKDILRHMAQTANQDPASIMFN
In words: co-IP; HEK293 cells transfected for 48 h; extraction with 0.5% DDM, 25 mM HEPES pH 7.4, 150 mM NaCl; anti-HA or anti-Flag magnetic beads, 2 h, 4°C; immunoblot. (In general: Immunoblotting shows a protein as a band on a membrane.)

In a further test the target is T2, CLCN5-3xFlag (human) (UniProt P51795).
T2 sequence: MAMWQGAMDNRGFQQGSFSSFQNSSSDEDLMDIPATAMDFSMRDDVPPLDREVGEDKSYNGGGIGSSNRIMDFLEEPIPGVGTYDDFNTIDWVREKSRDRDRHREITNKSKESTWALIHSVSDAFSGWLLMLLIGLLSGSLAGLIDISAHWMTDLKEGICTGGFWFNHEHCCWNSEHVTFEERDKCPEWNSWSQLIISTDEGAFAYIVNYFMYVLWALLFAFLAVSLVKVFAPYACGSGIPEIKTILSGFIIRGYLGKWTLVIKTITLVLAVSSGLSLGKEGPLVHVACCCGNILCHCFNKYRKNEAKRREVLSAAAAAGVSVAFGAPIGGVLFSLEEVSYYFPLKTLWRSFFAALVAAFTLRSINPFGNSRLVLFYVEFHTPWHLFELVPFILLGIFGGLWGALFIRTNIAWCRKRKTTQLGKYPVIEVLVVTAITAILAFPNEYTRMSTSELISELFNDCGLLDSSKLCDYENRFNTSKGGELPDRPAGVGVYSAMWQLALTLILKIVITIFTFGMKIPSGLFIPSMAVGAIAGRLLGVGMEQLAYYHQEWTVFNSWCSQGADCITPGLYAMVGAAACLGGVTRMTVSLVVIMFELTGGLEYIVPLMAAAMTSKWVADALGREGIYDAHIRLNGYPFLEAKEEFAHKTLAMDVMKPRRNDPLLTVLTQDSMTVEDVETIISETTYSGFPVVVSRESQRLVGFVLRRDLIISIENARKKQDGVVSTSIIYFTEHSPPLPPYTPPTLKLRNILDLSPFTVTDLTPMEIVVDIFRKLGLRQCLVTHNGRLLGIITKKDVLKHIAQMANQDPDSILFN
The description is as above.

For test [1], the target named is TMEM9 (human (endogenous in HEK293)) (UniProt Q9P0T7). In words: cross-linking; XL-MS: intact early endosomes purified by Endo-IP (FLAG-EEA1, HEK293EL, eluted without detergent) in KPBS, 1 mM DSSO, room temperature, 40 min; XlinkX, 5% FDR.
The target of test [2] is T3, TMEM9B (human (endogenous in HEK293 and in H9-derived iNeurons)) (UniProt Q9NQ34).
T3 sequence: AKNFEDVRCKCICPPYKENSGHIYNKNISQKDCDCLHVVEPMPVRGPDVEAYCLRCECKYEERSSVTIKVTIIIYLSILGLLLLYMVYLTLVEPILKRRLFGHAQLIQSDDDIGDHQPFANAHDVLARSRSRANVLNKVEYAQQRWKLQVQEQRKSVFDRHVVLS
The description is as above.

Test [3] deals with TMEM9 (human (endogenous in HEK293)) (UniProt Q9P0T7). The experiment in a line: native gel or EMSA; BN-MS: endosomal pellets (Endo-IP, HEK293EL) extracted with 0.5% DDM in KPBS, 4-16% NativePAGE at 4°C, 48 slices, DIA-MS; co-migration of elution profiles. For orientation: In EMSA bound probe runs differently from free probe, usually more slowly.
Test [4] concerns the target T3, TMEM9B (human (endogenous in HEK293 and in H9-derived iNeurons)). Described as above.
A further test deals with TMEM9-3xHA (human) (UniProt Q9P0T7). The experiment in a line: co-IP; HEK293 cells transfected for 48 h; extraction with 0.5% DDM, 25 mM HEPES pH 7.4, 150 mM NaCl; anti-HA or anti-Flag magnetic beads, 2 h, 4°C; immunoblot.
The target of the next test is T4, TMEM9B-3xHA (human) (UniProt Q9NQ34).
T4 sequence: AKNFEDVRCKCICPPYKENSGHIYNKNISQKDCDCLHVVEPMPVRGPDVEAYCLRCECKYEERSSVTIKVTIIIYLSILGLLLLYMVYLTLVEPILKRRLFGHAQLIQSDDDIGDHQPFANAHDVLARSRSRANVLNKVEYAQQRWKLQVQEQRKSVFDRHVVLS
The test is described as above.

B1: TMEM9B-3xHA (protein, UniProt Q9NQ34 34-198)
chain: AKNFEDVRCKCICPPYKENSGHIYNKNISQKDCDCLHVVEPMPVRGPDVEAYCLRCECKYEERSSVTIKVTIIIYLSILGLLLLYMVYLTLVEPILKRRLFGHAQLIQSDDDIGDHQPFANAHDVLARSRSRANVLNKVEYAQQRWKLQVQEQRKSVFDRHVVLS
Consider B1, for which the binding result with CLCN3-3xFlag (human) and in the test with CLCN5-3xFlag (human) was “binds” in each case.

B2: CLCN5 (protein, UniProt P51795 1-816)
chain: MAMWQGAMDNRGFQQGSFSSFQNSSSDEDLMDIPATAMDFSMRDDVPPLDREVGEDKSYNGGGIGSSNRIMDFLEEPIPGVGTYDDFNTIDWVREKSRDRDRHREITNKSKESTWALIHSVSDAFSGWLLMLLIGLLSGSLAGLIDISAHWMTDLKEGICTGGFWFNHEHCCWNSEHVTFEERDKCPEWNSWSQLIISTDEGAFAYIVNYFMYVLWALLFAFLAVSLVKVFAPYACGSGIPEIKTILSGFIIRGYLGKWTLVIKTITLVLAVSSGLSLGKEGPLVHVACCCGNILCHCFNKYRKNEAKRREVLSAAAAAGVSVAFGAPIGGVLFSLEEVSYYFPLKTLWRSFFAALVAAFTLRSINPFGNSRLVLFYVEFHTPWHLFELVPFILLGIFGGLWGALFIRTNIAWCRKRKTTQLGKYPVIEVLVVTAITAILAFPNEYTRMSTSELISELFNDCGLLDSSKLCDYENRFNTSKGGELPDRPAGVGVYSAMWQLALTLILKIVITIFTFGMKIPSGLFIPSMAVGAIAGRLLGVGMEQLAYYHQEWTVFNSWCSQGADCITPGLYAMVGAAACLGGVTRMTVSLVVIMFELTGGLEYIVPLMAAAMTSKWVADALGREGIYDAHIRLNGYPFLEAKEEFAHKTLAMDVMKPRRNDPLLTVLTQDSMTVEDVETIISETTYSGFPVVVSRESQRLVGFVLRRDLIISIENARKKQDGVVSTSIIYFTEHSPPLPPYTPPTLKLRNILDLSPFTVTDLTPMEIVVDIFRKLGLRQCLVTHNGRLLGIITKKDVLKHIAQMANQDPDSILFN
For B2, the binding result in test [1], in test [2], in test [3] and in test [4] was “binds” throughout.

B3: CLCN5-3xFlag (protein, UniProt P51795 1-816)
chain: MAMWQGAMDNRGFQQGSFSSFQNSSSDEDLMDIPATAMDFSMRDDVPPLDREVGEDKSYNGGGIGSSNRIMDFLEEPIPGVGTYDDFNTIDWVREKSRDRDRHREITNKSKESTWALIHSVSDAFSGWLLMLLIGLLSGSLAGLIDISAHWMTDLKEGICTGGFWFNHEHCCWNSEHVTFEERDKCPEWNSWSQLIISTDEGAFAYIVNYFMYVLWALLFAFLAVSLVKVFAPYACGSGIPEIKTILSGFIIRGYLGKWTLVIKTITLVLAVSSGLSLGKEGPLVHVACCCGNILCHCFNKYRKNEAKRREVLSAAAAAGVSVAFGAPIGGVLFSLEEVSYYFPLKTLWRSFFAALVAAFTLRSINPFGNSRLVLFYVEFHTPWHLFELVPFILLGIFGGLWGALFIRTNIAWCRKRKTTQLGKYPVIEVLVVTAITAILAFPNEYTRMSTSELISELFNDCGLLDSSKLCDYENRFNTSKGGELPDRPAGVGVYSAMWQLALTLILKIVITIFTFGMKIPSGLFIPSMAVGAIAGRLLGVGMEQLAYYHQEWTVFNSWCSQGADCITPGLYAMVGAAACLGGVTRMTVSLVVIMFELTGGLEYIVPLMAAAMTSKWVADALGREGIYDAHIRLNGYPFLEAKEEFAHKTLAMDVMKPRRNDPLLTVLTQDSMTVEDVETIISETTYSGFPVVVSRESQRLVGFVLRRDLIISIENARKKQDGVVSTSIIYFTEHSPPLPPYTPPTLKLRNILDLSPFTVTDLTPMEIVVDIFRKLGLRQCLVTHNGRLLGIITKKDVLKHIAQMANQDPDSILFN
Regarding B3, the binding result with TMEM9-3xHA (human) and in the test with TMEM9B-3xHA (human) was “binds” each time.

The record behind these values is publication doi:10.1101/2025.02.07.636106.
